Assay results reported in patent US20200386770A1 (YUROGEN BIOSYSTEMS, published 2020).
No constants are given. Whether binding was seen depends on the method and setting. Some results given as binding are weak or reduced against the parent protein; the word gives no strength.

The chains behind the UniProt entries cited, without tags or fusion partners. Where a name states a change or a piece, a line headed by the entry shows the natural chain unless it says otherwise.
UniProt Q9NZQ7: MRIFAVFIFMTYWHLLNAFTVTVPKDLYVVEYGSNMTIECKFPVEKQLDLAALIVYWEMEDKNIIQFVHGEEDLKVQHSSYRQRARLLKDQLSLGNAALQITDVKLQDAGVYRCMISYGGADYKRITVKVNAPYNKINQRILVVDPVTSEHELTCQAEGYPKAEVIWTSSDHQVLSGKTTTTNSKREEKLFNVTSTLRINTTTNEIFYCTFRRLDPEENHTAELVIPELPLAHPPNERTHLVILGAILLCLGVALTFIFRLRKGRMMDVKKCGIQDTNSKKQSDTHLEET

Legend:
human PD-L1 [1] = biological target: T1, human PD-L1 (human, UniProt Q9NZQ7 19-238, limits assumed); assay: capture ELISA, antibody held by anti-rabbit IgG Fc, biotinylated PD-L1
T1 construct: also called programmed death ligand-1; CD274

human PD-L1 [2] = biological target: T1, human PD-L1; assay: direct ELISA, human PD-L1 coated
human PD-L1 [3] = biological target: T1, human PD-L1; assay: sandwich ELISA, 2C5 capture, biotinylated 3B8 detection
human PD-L1 [4] = biological target: T1, human PD-L1; assay: sandwich ELISA, 3B8 capture, biotinylated 2C5 detection
human PD-L1 [5] = biological target: T1, human PD-L1; assay: sandwich ELISA, 8C6 capture, biotinylated 3B8 detection
human PD-L1 [6] = biological target: T1, human PD-L1; assay: sandwich ELISA, 2C5 capture, biotinylated 8C6 detection
human PD-L1 [7] = biological target: T1, human PD-L1; assay: sandwich ELISA, 8C6 capture, biotinylated 2C5 detection
human PD-L1 [8] = biological target: T1, human PD-L1; assay: sandwich ELISA (2C5 capture, 8C6 detection) compared with direct ELISA

Measured: binding

B1: rabbit anti-human PD-L1 mAb 12H2 (antibody, V domains shown)
VH: QEQLVESGGGLVQPEGSLTLTCTASGFSFSSSYYMCWVRQAPGKGLEWIACIWTSNGGRTYYANWAKGRFTISETSSTTVTLQMTSLTAADTATYFCARDDDTGSGYYNLWGPGTLVTVSS
VL: QIVMTQTASPVSAAVGGTVTINCQASESISSWLAWYQQKPGQPPKLLIYKASTLASGVPSRFKGSGSGTEFTLTISDLECADAATYYCQHGYYFGSVANTFGGGTEVVVKG
notes: Recombinant rabbit IgG; Full heavy chain assembled from the Fab heavy chain entry followed by the Fc entry
binds: human PD-L1 [1] | human PD-L1 [2]

B2: rabbit anti-human PD-L1 mAb 10H6 (antibody, V domains shown)
VH: QEQLVESGGGLVQPEGSLTLTCTASGFSFSSIYYLCWVRQAPGKGLEWIACIYGGNSDNTWYASWAKGRFTISKTSSTTVTLQMTSLTAADTATYFCARGYDIYGYAINLWGPGTLVTVSS
VL: DVVMTQTPASVEAAVGGTVTIKCQASQSIGGYLAWYQQKPGQPPKLLIYRASTLESGVASRFKGSGSGTEFTLTISDLECADAATYYCQCTYDSSNSRIYPNVFGGGTEVVVKG
notes: as for B1
binds: human PD-L1 [1] | human PD-L1 [2]

B3: rabbit anti-human PD-L1 mAb 3B8 (antibody, V domains shown)
VH: QSLEESGGDLVKPGASRTLTCTASGFSFSNNAYMCWVRQAPGKGLELIACIYSRYGNTHYASWAKGRFTISKTSSTTVTLQMTSLTAADTATYFCARGASGSSDYSFYFNLWGPGTLVTVSS
VL: AYDMTQTPASVEVAVGGTVTIKCQASQSISSWLAWYQQKPGQPPKLLIYDAYDLASGVPSRFKGSGSGTQFTLTISGVECTDAATYYCQQGYSSENIDNSFGGGTDVVVKG
notes: Recombinant rabbit IgG; Full heavy chain assembled from the Fab heavy chain entry followed by the Fc entry; Biotinylated when used as detection antibody in the sandwich ELISA
binds: human PD-L1 [3] | human PD-L1 [1] | human PD-L1 [2] | human PD-L1 [4] | human PD-L1 [5]

B4: rabbit anti-human PD-L1 mAb 2C5 (antibody, V domains shown)
VH: QSVEESGGRLVTPGTPLTLTCTVSGFSLNNDNVGWVRQAPGKGLEWVGLIDILGSSYYASWAKGRFTISKTSNTVDLKITSPTIEDTATYFCAREGDGSFDPWGPGTLVTVSS
VL: AQVLTQTPSPVSAAVGGTVTINCQASQNVYNKKNLAWYQQKLGQPPKLLIYKASTLASGVPSRFSGSGSGTQFTLTISDLECDDAATYYCQGDYIGSRAFGGGTEVVVKG
notes: as for B3
not listed: human PD-L1 [5] | human PD-L1 [8]
binds: all other assays above

B5: rabbit anti-human PD-L1 mAb 11G7 (antibody, V domains shown)
VH: QSVEESGGRLVTPGTPLTLTCTVSGIDLSSYDMTWVRQAPGKGLEYIGYISYFDKTYYATWAKGRFTISKTSTTVDLKMTSLTTEDTATYFCVRDRPDGITANLWGQGTLVTVSS
VL: AQLPTQTASPVSAAVGGTVTINCQSSHNVYSDNRLSWYQQKPGQPPKLLIYWASILASGVPSRFKGSGSGTQFTLTITDLECDDAATYYCAGGYSGNIYTFGGGTEVVVKG
notes: as for B1
binds: human PD-L1 [1] | human PD-L1 [2]

B6: rabbit anti-human PD-L1 mAb 8C6 (antibody, V domains shown)
VH: QSVEESGGRLVTPGTPLTLTCTASGFDISRHHMCWVRQAPGEGLEYIGFINPPGSAYYANWAKGRFTISRTSTTVALEMTSLTTEDTATYFCARWRFDDYGDLWGQGTLVTVSS
VL: AYDMTQTPASVEVAVGGTVTIKCQASESIASYLAWYQQKPGQPPKLLIYKASTLASGVSSRFRGSGSGTEFTLTISGVECADAATYYCQQGYSATNIDNAFGGGTEVVVKG
notes: as for B3
not listed: human PD-L1 [3] | human PD-L1 [4]
binds: all other assays above
